In US8389766B2, “Insecticidal compounds” (Syngenta Crop Protection LLC, priority 2006, dated 2013):
Some results were stated once for a whole list of compounds, not compound by compound.

Legend:
Assay type in all cases: in vivo
Myzus persicae = Myzus persicae (green peach aphid) sunflower leaf disc spray test; settings: 200 ppm sprayed on sunflower leaf discs, mixed ages; mortality 6 DAT
Thrips tabaci = Thrips tabaci (onion thrips) sunflower leaf disc spray test; settings: 200 ppm sprayed on sunflower leaf discs, mixed ages; mortality after 7 days
Heliothis virescens = Heliothis virescens (tobacco budworm) egg test on artificial diet; settings: 200 ppm (concentration in well 18 ppm), eggs 0-24 h old on artificial diet; egg mortality, larval mortality, growth regulation after 4 days
Plutella xylostella = Plutella xylostella (diamond back moth) larvae test on artificial diet; settings: 200 ppm (concentration in well 18 ppm), L2 larvae, larval mortality, growth regulation after 6 days
Diabrotica balteata = Diabrotica balteata (corn root worm) larvae test on artificial diet; settings: 200 ppm (concentration in well 18 ppm), L2 larvae, larval mortality, growth regulation after 5 days
Tetranychus urticae = Tetranychus urticae (two-spotted spider mite) bean leaf disc spray test; settings: 200 ppm sprayed on bean leaf discs, mixed ages; egg, larval and adult mortality 8 days later
Spodoptera littoralis = Spodoptera littoralis (Egyptian cotton leafworm) cotton leaf disc spray test; settings: 200 ppm sprayed on cotton leaf discs, 5 L1 larvae; mortality, feeding behaviour, growth regulation 3 DAT

CCc1cc(C(F)(C(F)(F)F)C(F)(F)C(F)(F)F)cc(CC)c1NC(=O)c1ccc(C#N)c(NC(=O)c2ccccc2C)c1 (centres unmarked) [A42]
at least 80%: control of Myzus persicae (Myzus persicae) | control of Thrips tabaci (Thrips tabaci) | control of Heliothis virescens (Heliothis virescens) | control of Plutella xylostella (Plutella xylostella) | control of Diabrotica balteata (Diabrotica balteata) | control of Tetranychus urticae (Tetranychus urticae) | control of Spodoptera littoralis (Spodoptera littoralis)

CCc1cc(C(F)(C(F)(F)F)C(F)(F)C(F)(F)F)cc(CC)c1NC(=O)c1ccc(C#N)c(NC(=O)c2ccccc2Cl)c1 (centres unmarked) [A43]
at least 80%: control of Myzus persicae (Myzus persicae) | control of Thrips tabaci (Thrips tabaci) | control of Heliothis virescens (Heliothis virescens) | control of Plutella xylostella (Plutella xylostella) | control of Diabrotica balteata (Diabrotica balteata) | control of Tetranychus urticae (Tetranychus urticae) | control of Spodoptera littoralis (Spodoptera littoralis)

CCc1cc(C(F)(C(F)(F)F)C(F)(F)C(F)(F)F)cc(CC)c1NC(=O)c1ccc(C#N)c(NC(=O)c2ccc(C#N)cc2)c1 (centres unmarked) [A44]
at least 80%: control of Myzus persicae (Myzus persicae) | control of Thrips tabaci (Thrips tabaci) | control of Heliothis virescens (Heliothis virescens) | control of Plutella xylostella (Plutella xylostella) | control of Diabrotica balteata (Diabrotica balteata) | control of Tetranychus urticae (Tetranychus urticae) | control of Spodoptera littoralis (Spodoptera littoralis)

CCc1cc(C(F)(C(F)(F)F)C(F)(F)C(F)(F)F)cc(CC)c1NC(=O)c1ccc(C#N)c(NC(=O)c2ccc(F)cc2)c1 (centres unmarked) [A52]
at least 80%: control of Myzus persicae (Myzus persicae) | control of Thrips tabaci (Thrips tabaci) | control of Heliothis virescens (Heliothis virescens) | control of Plutella xylostella (Plutella xylostella) | control of Diabrotica balteata (Diabrotica balteata) | control of Tetranychus urticae (Tetranychus urticae) | control of Spodoptera littoralis (Spodoptera littoralis)

CCc1cc(C(F)(C(F)(F)F)C(F)(F)C(F)(F)F)cc(CC)c1NC(=O)c1ccc(C#N)c(NC(=O)c2ccccc2C(F)(F)F)c1 (centres unmarked) [A53]
at least 80%: control of Myzus persicae (Myzus persicae) | control of Thrips tabaci (Thrips tabaci) | control of Heliothis virescens (Heliothis virescens) | control of Plutella xylostella (Plutella xylostella) | control of Diabrotica balteata (Diabrotica balteata) | control of Spodoptera littoralis (Spodoptera littoralis)

CCc1cc(C(F)(C(F)(F)F)C(F)(F)C(F)(F)F)cc(CC)c1NC(=O)c1ccc(C#N)c(NC(=O)c2ccc(F)cc2Cl)c1 (centres unmarked) [A54]
at least 80%: control of Myzus persicae (Myzus persicae) | control of Thrips tabaci (Thrips tabaci) | control of Heliothis virescens (Heliothis virescens) | control of Plutella xylostella (Plutella xylostella) | control of Diabrotica balteata (Diabrotica balteata) | control of Tetranychus urticae (Tetranychus urticae) | control of Spodoptera littoralis (Spodoptera littoralis)

CCc1cc(C(F)(C(F)(F)F)C(F)(F)C(F)(F)F)cc(CC)c1NC(=O)c1ccc(C#N)c(NC(=O)c2snnc2C)c1 (centres unmarked) [A55]
at least 80%: control of Myzus persicae (Myzus persicae) | control of Thrips tabaci (Thrips tabaci) | control of Heliothis virescens (Heliothis virescens) | control of Plutella xylostella (Plutella xylostella) | control of Diabrotica balteata (Diabrotica balteata) | control of Tetranychus urticae (Tetranychus urticae) | control of Spodoptera littoralis (Spodoptera littoralis)

CCc1cc(C(F)(C(F)(F)F)C(F)(F)C(F)(F)F)cc(C)c1NC(=O)c1ccc(C#N)c(NC(=O)c2ccccc2Cl)c1 (centres unmarked) [A62]
at least 80%: control of Myzus persicae (Myzus persicae) | control of Thrips tabaci (Thrips tabaci) | control of Heliothis virescens (Heliothis virescens) | control of Plutella xylostella (Plutella xylostella) | control of Diabrotica balteata (Diabrotica balteata) | control of Tetranychus urticae (Tetranychus urticae) | control of Spodoptera littoralis (Spodoptera littoralis)

CCc1cc(C(F)(C(F)(F)F)C(F)(F)C(F)(F)F)cc(C)c1NC(=O)c1ccc(C#N)c(NC(=O)c2ccc(C#N)cc2)c1 (centres unmarked) [A63]
at least 80%: control of Myzus persicae (Myzus persicae) | control of Thrips tabaci (Thrips tabaci) | control of Heliothis virescens (Heliothis virescens) | control of Plutella xylostella (Plutella xylostella) | control of Diabrotica balteata (Diabrotica balteata) | control of Tetranychus urticae (Tetranychus urticae) | control of Spodoptera littoralis (Spodoptera littoralis)

CCc1cc(C(F)(C(F)(F)F)C(F)(F)C(F)(F)F)cc(C)c1NC(=O)c1ccc(C#N)c(NC(=O)c2ccc(OC(F)(F)F)cc2)c1 (centres unmarked) [A66]
at least 80%: control of Myzus persicae (Myzus persicae) | control of Thrips tabaci (Thrips tabaci) | control of Heliothis virescens (Heliothis virescens) | control of Plutella xylostella (Plutella xylostella) | control of Diabrotica balteata (Diabrotica balteata) | control of Tetranychus urticae (Tetranychus urticae) | control of Spodoptera littoralis (Spodoptera littoralis)

CCc1cc(C(F)(C(F)(F)F)C(F)(F)C(F)(F)F)cc(C)c1NC(=O)c1ccc(C#N)c(NC(=O)c2ccc(C(F)(F)F)cc2)c1 (centres unmarked) [A68]
at least 80%: control of Myzus persicae (Myzus persicae) | control of Thrips tabaci (Thrips tabaci) | control of Heliothis virescens (Heliothis virescens) | control of Plutella xylostella (Plutella xylostella) | control of Diabrotica balteata (Diabrotica balteata) | control of Tetranychus urticae (Tetranychus urticae) | control of Spodoptera littoralis (Spodoptera littoralis)

CCc1cc(C(F)(C(F)(F)F)C(F)(F)C(F)(F)F)cc(C)c1NC(=O)c1ccc(C#N)c(NC(=O)c2ccccc2)c1 (centres unmarked) [A71]
at least 80%: control of Myzus persicae (Myzus persicae) | control of Thrips tabaci (Thrips tabaci) | control of Heliothis virescens (Heliothis virescens) | control of Plutella xylostella (Plutella xylostella) | control of Diabrotica balteata (Diabrotica balteata) | control of Tetranychus urticae (Tetranychus urticae) | control of Spodoptera littoralis (Spodoptera littoralis)

CCc1cc(C(F)(C(F)(F)F)C(F)(F)C(F)(F)F)cc(C)c1NC(=O)c1ccc(C#N)c(NC(=O)c2ccc(F)cc2)c1 (centres unmarked) [A72]
at least 80%: control of Myzus persicae (Myzus persicae) | control of Thrips tabaci (Thrips tabaci) | control of Heliothis virescens (Heliothis virescens) | control of Plutella xylostella (Plutella xylostella) | control of Diabrotica balteata (Diabrotica balteata) | control of Tetranychus urticae (Tetranychus urticae) | control of Spodoptera littoralis (Spodoptera littoralis)

CCc1cc(C(F)(C(F)(F)F)C(F)(F)C(F)(F)F)cc(C)c1NC(=O)c1ccc(C#N)c(NC(=O)c2ccc(F)cc2Cl)c1 (centres unmarked) [A74]
at least 80%: control of Myzus persicae (Myzus persicae) | control of Thrips tabaci (Thrips tabaci) | control of Heliothis virescens (Heliothis virescens) | control of Plutella xylostella (Plutella xylostella) | control of Diabrotica balteata (Diabrotica balteata) | control of Tetranychus urticae (Tetranychus urticae) | control of Spodoptera littoralis (Spodoptera littoralis)

CCc1cc(C(F)(C(F)(F)F)C(F)(F)C(F)(F)F)cc(C)c1NC(=O)c1ccc(C#N)c(NC(=O)c2snnc2C)c1 (centres unmarked) [A75]
at least 80%: control of Myzus persicae (Myzus persicae) | control of Thrips tabaci (Thrips tabaci) | control of Heliothis virescens (Heliothis virescens) | control of Plutella xylostella (Plutella xylostella) | control of Diabrotica balteata (Diabrotica balteata) | control of Tetranychus urticae (Tetranychus urticae) | control of Spodoptera littoralis (Spodoptera littoralis)

CCc1cc(C(F)(C(F)(F)F)C(F)(F)C(F)(F)F)cc(C)c1NC(=O)c1ccc(C#N)c(NC(=O)c2cccc(F)c2F)c1 (centres unmarked) [A76]
at least 80%: control of Myzus persicae (Myzus persicae) | control of Thrips tabaci (Thrips tabaci) | control of Heliothis virescens (Heliothis virescens) | control of Plutella xylostella (Plutella xylostella) | control of Diabrotica balteata (Diabrotica balteata) | control of Spodoptera littoralis (Spodoptera littoralis)

Cc1cc(C(F)(C(F)(F)F)C(F)(F)C(F)(F)F)cc(Br)c1NC(=O)c1ccc(C#N)c(NC(=O)c2ccccc2Cl)c1 (centres unmarked) [A103]
at least 80%: control of Myzus persicae (Myzus persicae) | control of Thrips tabaci (Thrips tabaci) | control of Heliothis virescens (Heliothis virescens) | control of Plutella xylostella (Plutella xylostella) | control of Diabrotica balteata (Diabrotica balteata) | control of Tetranychus urticae (Tetranychus urticae) | control of Spodoptera littoralis (Spodoptera littoralis)

Cc1cc(C(F)(C(F)(F)F)C(F)(F)C(F)(F)F)cc(Br)c1NC(=O)c1ccc(C#N)c(NC(=O)c2ccc(C#N)cc2)c1 (centres unmarked) [A104]
at least 80%: control of Myzus persicae (Myzus persicae) | control of Thrips tabaci (Thrips tabaci) | control of Heliothis virescens (Heliothis virescens) | control of Plutella xylostella (Plutella xylostella) | control of Diabrotica balteata (Diabrotica balteata) | control of Tetranychus urticae (Tetranychus urticae) | control of Spodoptera littoralis (Spodoptera littoralis)

Cc1cc(C(F)(C(F)(F)F)C(F)(F)C(F)(F)F)cc(Br)c1NC(=O)c1ccc(C#N)c(NC(=O)c2ccc([N+](=O)[O-])cc2)c1 (centres unmarked) [A105]
at least 80%: control of Myzus persicae (Myzus persicae) | control of Thrips tabaci (Thrips tabaci) | control of Heliothis virescens (Heliothis virescens) | control of Plutella xylostella (Plutella xylostella) | control of Diabrotica balteata (Diabrotica balteata) | control of Tetranychus urticae (Tetranychus urticae) | control of Spodoptera littoralis (Spodoptera littoralis)

CCc1cc(C(F)(C(F)(F)F)C(F)(F)C(F)(F)F)cc(Br)c1NC(=O)c1ccc(C#N)c(NC(=O)c2ccccc2)c1 (centres unmarked) [A154]
at least 80%: control of Myzus persicae (Myzus persicae) | control of Thrips tabaci (Thrips tabaci) | control of Heliothis virescens (Heliothis virescens) | control of Plutella xylostella (Plutella xylostella) | control of Diabrotica balteata (Diabrotica balteata) | control of Spodoptera littoralis (Spodoptera littoralis)

CCc1cc(C(F)(C(F)(F)F)C(F)(F)C(F)(F)F)cc(C)c1NC(=O)c1ccc(C#N)c(NC(=O)c2cccnc2C)c1 (centres unmarked) [A195]
at least 80%: control of Myzus persicae (Myzus persicae) | control of Thrips tabaci (Thrips tabaci) | control of Heliothis virescens (Heliothis virescens) | control of Plutella xylostella (Plutella xylostella) | control of Tetranychus urticae (Tetranychus urticae) | control of Spodoptera littoralis (Spodoptera littoralis)
